Earlier results, collected in US6649763B1, “Optically active quinoline carboxylic acid derivatives with 7-pyrrolidine substituents causing optical activity and a process for the preparation thereof” (Dong Wha Pharm. Ind. Co., Ltd., priority 1999, dated 2003).
At least one compound was matched to its structure with a doubt left.

Settings: Drugs of the future, 17 (7): 559-563 (1992); cited from earlier work

**Q.** Which results are given for C[C@H]1COc2c(N3CCN(C)CC3)c(F)cc3c(=O)c(C(=O)O)cn1c23 [levofloxacin]?
**A.** antibacterial activity relative to ofloxacin, a racemate: two-fold higher antibacterial activity; antibacterial activity relative to the other enantiomer, (+)-ofloxacin: 8-128 fold
